In publication PMC12755392, “p62 sorts Lupus La and selected microRNAs into breast cancer-derived exosomes” one finds binding data, which are given here for 2 substances.

No constants are given. Whether binding was seen depends on the method and setting. For part of these data: In cells and extracts the contact can be indirect. Some binding calls cover weakened binding; strength is not graded here. For part of these data: Tags and fused reporters may be left off the sequences shown.

In test [1] the target is T1, recombinant La-Nluc-FLAG-His6 (human) (UniProt P05455).
T1 sequence: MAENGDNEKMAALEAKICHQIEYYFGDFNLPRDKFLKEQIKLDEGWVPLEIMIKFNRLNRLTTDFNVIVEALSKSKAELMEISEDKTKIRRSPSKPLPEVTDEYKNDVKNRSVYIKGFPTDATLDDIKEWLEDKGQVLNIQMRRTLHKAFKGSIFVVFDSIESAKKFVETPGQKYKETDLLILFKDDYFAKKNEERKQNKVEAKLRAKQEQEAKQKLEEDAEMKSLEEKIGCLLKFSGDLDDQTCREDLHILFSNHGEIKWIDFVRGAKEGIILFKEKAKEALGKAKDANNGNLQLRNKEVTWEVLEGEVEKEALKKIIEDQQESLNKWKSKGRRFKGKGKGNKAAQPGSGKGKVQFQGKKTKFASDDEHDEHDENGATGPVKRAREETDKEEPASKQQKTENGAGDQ
Nature of the test: pull-down; anti-DYKDDDK Fab-Trap agarose loaded with La-Nluc-FLAG-His6 or 3xFLAG peptide (control), washed with TBS, incubated with His6-MBP-p62 1 h at room temperature; immunoblot; both purified. For orientation: In western blotting, separated proteins are transferred to a membrane and probed.

Test [2] has as its target T2, Lupus La protein (human (endogenous in MDA-MB-231)) (UniProt P05455).
T2 sequence: T1 sequence
Nature of the test: co-IP; MDA-MB-231 WT lysate in IP buffer (20 mM HEPES pH 7.4, 100 mM KCl, 5 mM MgCl2, 1% TX-100), 5 ug mouse anti-La (OTI1E11) or IgG isotype control, Protein A/G agarose, overnight, 4 C; immunoblot.

The target in test [3] is T2, Lupus La protein (human (endogenous in MDA-MB-231)). The test can be described thus: co-IP; exosomes immunoisolated from MDA-MB-231 HA-CD63-mEGFP^ECL1 cells with GFP-Trap beads, lysed in IP buffer; 5 ug mouse anti-La (OTI1E11) or IgG isotype control, Protein A/G agarose, overnight, 4 C; immunoblot.

Take “recombinant His6-MBP-p62 (from UniProt Q13501 1-440)”: the binding entry in test [1] was “binds”.
As to “selective autophagy receptor p62 (from UniProt Q13501 1-440)”, the binding result in test [2] and in test [3] was “binds” throughout.
